The record followed here is article PMC3037357.

Sequences of proteins named here, by UniProt entry; tags and fusion partners are left off.
UniProt Q12824: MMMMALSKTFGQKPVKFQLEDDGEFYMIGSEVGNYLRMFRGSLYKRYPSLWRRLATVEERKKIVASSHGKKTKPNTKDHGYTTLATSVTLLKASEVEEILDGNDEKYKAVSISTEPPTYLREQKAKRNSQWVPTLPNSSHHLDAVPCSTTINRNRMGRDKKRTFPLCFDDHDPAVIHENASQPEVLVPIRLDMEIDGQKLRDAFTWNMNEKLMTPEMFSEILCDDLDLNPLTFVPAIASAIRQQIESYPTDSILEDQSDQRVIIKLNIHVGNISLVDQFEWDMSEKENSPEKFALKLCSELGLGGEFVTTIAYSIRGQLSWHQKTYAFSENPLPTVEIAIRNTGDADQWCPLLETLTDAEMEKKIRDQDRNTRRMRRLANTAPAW
UniProt Q969G3: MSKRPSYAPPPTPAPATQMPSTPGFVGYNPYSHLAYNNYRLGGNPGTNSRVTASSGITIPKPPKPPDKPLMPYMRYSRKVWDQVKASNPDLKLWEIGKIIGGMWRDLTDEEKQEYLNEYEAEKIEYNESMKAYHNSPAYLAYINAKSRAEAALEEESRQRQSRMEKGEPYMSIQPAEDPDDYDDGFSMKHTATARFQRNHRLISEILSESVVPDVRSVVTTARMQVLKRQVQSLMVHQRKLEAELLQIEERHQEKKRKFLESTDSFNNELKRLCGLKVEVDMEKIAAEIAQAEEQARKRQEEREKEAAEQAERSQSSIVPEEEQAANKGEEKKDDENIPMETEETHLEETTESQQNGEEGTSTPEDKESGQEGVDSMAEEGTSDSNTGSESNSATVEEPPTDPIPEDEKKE

This experiment has as its target Flag-tagged INI1 expressed in HeLa S3 cells (human) (UniProt Q12824). In words: co-IP; affinity purification of the epitope-tagged SWI/SNF complex from nuclear extracts of HeLa S3 cells expressing Flag-tagged INI1; BAF57 found in the purified complex with α-BAF57 antibodies (immunoprecipitation and Western blot). Background: A western blot detects proteins with antibodies after separation by electrophoresis.

Results are given in words; binding and its absence hold for the method and conditions named. Binding seen in cells or lysates may run through a third protein. Some binding calls cover weakened binding; strength is not graded here.

On to “BAF57/SMARCE1 (from UniProt Q969G3 1-411)”, for which the binding result is recorded as “binds”.
